Measured values: patent US20100196926A1, “Combined Method And Kit For The Sequential Measurement of (1) The Enzymatically Active Fraction And (2) The Total Amount Of An Enzyme” (UNIVERSITE DE LIEGE, priority 2007, published 2010)
At least one compound was matched to its structure with a doubt left.

System: activated equine neutrophils
Assay: Combined SIEFED-ELISA measurement of total and active MPO released by PMA-activated equine neutrophils pre-incubated with polyphenols
Format: cell-based, horse
Details: 10^−4, 10^−5 or 10^−6 M
Description: The primary antibody(2), that captures the enzyme (MPO 1), is a rabbit IgG (3 μg/ml). Standard enzyme (MPO) or unknown sample is incubated 2 h at 37° C. After washing, the (peroxidase) activity of the enzyme (MPO) is detected by adding 100 μl of a 10 μM H2O2 solution and 40 μM of Amplex® Red (8) (10-acetyl-3,7-dihydroxyphenoxazine; from Molecular Probes) in phosphate buffer (50 mM, pH 7.5). The fluorescence is read during 30 min (at 37° C.) at 590 nm with a Fluoroskan Ascent apparatus (Labsystems). The volumes of the primary antibody(2) and the sample put in the wells, are 200 μl. Controls (blank) and dilutions of the samples are established with dilution buffer.
Enhancement of fluorescence was obtained when adding a defined concentration of nitrites ions (about 10 mM) to the Amplex® Red solution (8). The fluorescence response obtained in this SIEFED steps (part) of the combined SIEFED-ELISA bioassay is directly proportional to the enzymatically active fraction of the enzyme (equine MPO) present in the sample.
After the SIEFED detection, a washing (0.9% NaCl solution containing 0.1% tween 20) is performed before starting the ELISA part of the combined method; the immobilized antibody(2)—antigen(1) complex is incubated (2 h, 37° C.) with an excess (5 μg/ml) of guinea pig IgG, the secondary antibody (4). After washing, a third antibody (5) produced against guinea pig IgG is added. […]

COc1cc(CCC(=O)CC(=O)CCc2ccc(O)c(OC)c2)ccc1O [THC, Tetrahydrocurcumin]
effect on the total enzyme (MPO) released by activated neutrophils (ELISA part): dose dependent inhibitory effects | effect on the active fraction of the enzyme (MPO) released by activated neutrophils (SIEFED part): dose dependent inhibitory effects
